Data: patent US20220106360A1 (UNIVERSITY OF PITTSBURGH OF THE COMMONWEALTH SYSTEM OF …, published 2022)
These are yes or no findings as the source states them, for the method shown. Some binding calls cover weakened binding; strength is not graded here. Sequences can lack the tags named with a protein.

Biological target: T1, VAPA 1-242 expressed from pEGFP-N1-VAPA; 1-242 (Addgene #18874) in HEK293 cells (UniProt Q9Z270)
T1 sequence (looked up): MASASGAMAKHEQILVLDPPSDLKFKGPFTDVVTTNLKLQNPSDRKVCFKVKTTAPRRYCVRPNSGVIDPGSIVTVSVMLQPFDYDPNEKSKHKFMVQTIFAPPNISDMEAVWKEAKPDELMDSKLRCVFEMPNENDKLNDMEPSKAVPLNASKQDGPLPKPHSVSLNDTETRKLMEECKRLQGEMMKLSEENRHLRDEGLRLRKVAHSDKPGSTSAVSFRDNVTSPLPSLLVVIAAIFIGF
Assay: peptide spot array (far western) with lysate of HEK293 cells expressing VAPA 1-242, anti-VAPA detection

B1: canonical FFAT motif peptide (EFFDAPE) (peptide)
peptide: EFFDAPE
  binding: binds
